These results are taken from PubChem BioAssay AID2685 (National Center for Advancing Translational Sciences (NCATS), 2010).

The list shows a part of the results. The main result of the screen is listed elsewhere. These columns were measured beside it and carry no call. The list favours compounds with an active or inconclusive main result. Words in brackets tell the shape of the fitted curve; partial curves, single points and poor fits give uncertain potencies.

This test in a line: qHTS Assay for Lipid Storage Modulators in Drosophila S3 Cells.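 As to cell number change: cells counted by Cell Tracker Red CMTPX staining in the red channel.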 Particulars: BODIPY lipid droplet fluorescence, 18-24 h; for cell number change: measured here: cell count max response, cells fed with added oleic acid. The essentials: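 Drosophila S3 cells loaded with oleic acid (400 uM, as added) and compounds at several concentrations; lipid droplets imaged by 488-nm laser-scanning cytometry, 500–530 nm intensity and object ratio to cell channel. Percent activity normalized to 20 uM Triacsin C.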

The mark [1] stands for this setting: measured here: lipid fluorescence (Fed channel) AC50, cells fed with added oleic acid.
[2] abbreviates: measured here: cell number channel AC50, cells fed with added oleic acid.

For orientation: AC50 means the concentration giving half of the maximal activity seen. High values mean weaker potency, low ones greater potency. As to `N=c1oc2cc(O)ccc2cc1C(=O)Nc1nc2ccccc2s1`, the cell number change turned out to be 14.5%. For the same compound, under setting [1], the AC50 is 18.4 µM [rising, single point].
For `CCCCCCCCNC(=O)CCNC(=O)c1ccc(C(C)(C)C)cc1`, the cell number change is -34.8%. Further, under setting [2], the AC50 is 0.231 µM [falling, full curve, poor fit]. Further, the AC50 under setting [1] is 0.184 µM [falling, full curve].
For `COCC(=O)Nc1nc(-c2ccc(C)cc2)c(C)s1`, the cell number change was -20.8%. Moreover, the concentration at half-maximal activity (AC50) under setting [1] was 0.461 µM [falling, full curve, poor fit].
Consider `Cc1nc2sccn2c(=O)c1CCN1CCC(=C(c2ccccc2)c2ccc(F)cc2)CC1`, for which the cell number change was -3.39%. The AC50 under setting [1] is 16.4 µM [rising, single point].
With `CC1CCCCN1C(=O)NC12CC3CC(CC(C3)C1)C2` (configuration not stated), the cell number change was -31.4%. Moreover, under setting [2], the AC50 was 18.4 µM [falling, single point]. The AC50 under setting [1] was 6.51 µM [falling, single point].
With `CC(NC(=O)COC(=O)CNC(=O)c1ccccc1Cl)C1CC2CCC1C2` (configuration not stated), the cell number change turned out to be 11.6%. Under setting [1], the AC50 was 29.1 µM [rising, single point].
`COC(=O)C1=C(C)NC(=O)NC1c1c(O)ccc2ccccc12` (configuration not stated): the cell number change amounted to 24.3%. Under setting [1], the AC50 was 29.1 µM [rising, single point].
As for `COc1cccc(C(=O)Nc2cc3c(cc2C(C)=O)OCCO3)c1`, the half-maximal activity concentration (AC50) under setting [1] is 2.06 µM [rising, partial curve, poor fit].
Take `COC(=O)C(C(=O)N1CCN(C)CC1)C1CCCCCC1` (configuration not stated): the cell number change is -111%. Further, under setting [2], the AC50 was 23.1 µM [falling, partial curve, poor fit]. Further, under setting [1], the concentration at half-maximal activity (AC50) was 4.11 µM [falling, full curve].
In the case of `O=C(COC(=O)c1sc2ccccc2c1Cl)NC1CCCCC1`, the cell number change is 10.2%. Also, the half-maximal activity concentration (AC50) under setting [2] was 0.731 µM [rising, single point].
`COc1ccc(C(C)(C)C)cc1NC(=O)CN1C(=O)C(=O)N(Cc2ccco2)C1=O`: the cell number change is -5.7%. The AC50 under setting [1] is 1.46 µM [falling, partial curve].
Consider `O=C(Nc1ccc(Cl)cc1N1CCOCC1)C1CCCCC1`, for which the cell number change stood at 15%.
Take `O=C(Nc1ccc(Cl)c(S(=O)(=O)N2CCOCC2)c1)c1cc(=O)[nH]c2ccccc12`: the cell number change came to 25.5%. Further, the AC50 under setting [1] is 11.6 µM [rising, partial curve].
Take `CC(=O)NCCC(=O)Nc1cc(S(=O)(=O)Nc2ccc(Cl)cc2)ccc1N1CCCC1`: the cell number change is -50%. Moreover, the AC50 under setting [2] was 29.1 µM [falling, single point].
For the compound `Cn1c(=O)n(C)c2cc([N+](=O)[O-])c(N3CCN(C(=O)c4ccccc4Cl)CC3)cc21`, the cell number change is -25.9%. Further, the half-maximal activity concentration (AC50) under setting [1] was 18.4 µM [falling, partial curve].
On to `CCOC(=O)c1cnc(SSc2ncc(C(=O)OCC)c(N)n2)nc1N`, for which the cell number change was -28.1%.
As to `O=[N+]([O-])c1ccccc1N(CC1CO1)S(=O)(=O)c1ccccc1` (configuration not stated), the cell number change is -9.78%. In addition, the AC50 under setting [1] is 0.00411 µM [falling, full curve, poor fit].
Regarding `CC(CN1CCOCC1)OC(=O)c1cccc(Br)c1` (configuration not stated), the cell number change is 5.68%.
As to `COc1cc(C2NC(=O)NC(C)=C2C(=O)NCc2ccccc2)c(Cl)cc1O` (configuration not stated), the cell number change turned out to be 33.7%. Besides, under setting [1], the AC50 was 29.1 µM [rising, single point].
Regarding `O=C(Nc1ccc(NC(=O)c2cc3ccccc3o2)cc1)c1ccco1`, the cell number change is 17.1%.
As to `O=C(NCCc1c[nH]c2ccccc12)c1cnc2sccn2c1=O`, the cell number change was found to be 63.9%. Moreover, the AC50 under setting [2] was 0.92 µM [rising, partial curve]. For the same compound, the AC50 under setting [1] was 0.517 µM [rising, full curve].
Consider `COc1ccc(/C=N/NC(=O)c2ccn[nH]2)cc1Cn1nc(C)c([N+](=O)[O-])c1C`, for which the cell number change was 8.54%. The AC50 under setting [1] was 23.1 µM [rising, single point].
As for `CCn1nc(NC(=O)C2CCCO2)c2cc3cc(C)ccc3nc21` (configuration not stated), the cell number change was -50.1%.
Regarding `CCN(CC(=O)Nc1ccc(OC)cc1)C(=O)c1ccc2c(=O)n3c(nc2c1)CCC3`, the cell number change came to 9.08%. Also, the AC50 under setting [1] is 3.26 µM [rising, single point].
As for `Cc1ccc(S(=O)(=O)N2CCOC23CCN(C(=O)C(=O)NCCC(C)C)CC3)cc1`, the cell number change was 2.2%.
For `O=C(CN1CCC(O)(c2ccccc2F)CC1)NCCc1c[nH]c2ccccc12`, the cell number change was determined as 36.2%. Further, the AC50 under setting [2] is 20.6 µM [rising, single point].
As to `O=c1[nH]c(CN(CCO)CCO)nc2c1C1(CCCCC1)Cc1ccccc1-2`, the cell number change is -14.7%. Further, the concentration at half-maximal activity (AC50) under setting [1] is 29.1 µM [falling, single point].
For `O=C1c2ccccc2C(=O)N1OCc1cccc(Cl)c1`, the cell number change was -8.12%.
Regarding `O=C(c1cc(C2CC2)nn1-c1ccccc1)N1CCN(S(=O)(=O)c2ccccc2)CC1`, under setting [1], the AC50 is 13 µM [falling, partial curve].
Regarding `CCCNC(=O)Cn1cnc2sc(C(=O)N3CCN(c4ccc(F)cc4)CC3)c(C)c2c1=O`, the cell number change was -5.23%.
For `CC(=O)Nc1ccc(S(=O)(=O)NC2=NCN(C)CN2)cc1`, the AC50 under setting [1] is 4.61 µM [falling, partial curve, poor fit].
On to `COc1ccc(OCC(=O)Nc2ccc(S(=O)(=O)Nc3cc(C)on3)cc2)cc1`, for which the cell number change was -16.5%.
Turning to `C=CCc1cccc(/C=N/NC(=O)C(C)Nc2cccc(C)c2)c1O` (configuration not stated), the cell number change was determined as 10.3%.
As to `Cc1nc2ccccc2c(=O)n1NC(=O)Nc1ccccc1`, the AC50 under setting [2] was 2.59 µM [rising, partial curve].
With `Cc1ccc(CNC(=O)CCc2c(C)nn(-c3ccc(N4CCOCC4)nn3)c2C)cc1`, the cell number change is -43.2%. For the same compound, the AC50 under setting [2] was 29.1 µM [falling, single point].
Take `COc1ccc(CNC(=O)CCc2nc(-c3ccccc3F)no2)c(OC)c1`: the concentration at half-maximal activity (AC50) was 6.51 µM [rising, single point] under setting [2] and 4.11 µM [rising, single point] under setting [1].
As for `O=C(CN1CCOCC1)NC1C2CC3CC(C2)CC1C3` (configuration not stated), the cell number change was -21.5%. Further, the AC50 under setting [1] was 0.731 µM [falling, full curve].
For `COc1ccccc1N/N=C(\C#N)C(=N)N1CCOCC1`, the cell number change was 25.8%. Under setting [1], the AC50 was 6.51 µM [rising, full curve, poor fit].
On to `CC(C)(C)C1CCC(=O)N(CCOc2ccccc2)CC1` (configuration not stated), for which the cell number change is -23.6%.
For the compound `COc1cccc(C=Nc2cc(C)cc(C)c2)c1O`, the cell number change was -25.5%. Further, under setting [2], the half-maximal activity concentration (AC50) was 0.00651 µM [falling, full curve]. Further, the AC50 under setting [1] is 0.00651 µM [falling, full curve, poor fit].
With `COc1ccc(NC(=O)NCCN2CCN(c3cc(OC)ccc3OC)CC2)cc1`, the cell number change is -16.1%. The AC50 under setting [1] is 16.4 µM [falling, single point].
For the compound `COc1ccc(CN(C)C(=O)c2ccc(NC(=O)CC3SC(N4CCCC4)=NC3=O)cc2)c(OC)c1OC` (configuration not stated), the cell number change is -9.68%. In addition, the AC50 under setting [1] was 6.51 µM [falling, single point].
Regarding `CCCc1nc2ccccc2c(=O)n1-c1c(C)n(C)n(-c2ccccc2)c1=O`, the cell number change was -7.57%. The AC50 under setting [1] is 3.26 µM [falling, single point].
As to `COc1ccc2cc3c(N)nn(C(=O)c4cccc(F)c4)c3nc2c1`, the cell number change was -45.5%. Moreover, under setting [2], the concentration at half-maximal activity (AC50) was 29.1 µM [falling, single point]. Also, the AC50 under setting [1] was 29.1 µM [falling, single point].
In the case of `COc1ccc(CN(C(=O)c2ccc(C)cc2)C2CCS(=O)(=O)C2)cc1` (configuration not stated), the cell number change was determined as 22.4%. The concentration at half-maximal activity (AC50) under setting [1] was 13 µM [rising, partial curve].
With `Nn1c(SCc2nc3ccccc3[nH]2)nnc1C1CCCCC1`, the cell number change is -18.1%.
Take `O=C(O)c1ccc(Cl)c(S(=O)(=O)NCc2cccnc2)c1`: the cell number change is -35%. Also, the AC50 under setting [2] is 4.11 µM [falling, partial curve].
For `COc1ccc2[nH]c3c(c2c1)CCn1c-3nc2ccccc2c1=O`, the cell number change is 14.5%. For the same compound, the AC50 under setting [1] is 0.651 µM [rising, full curve].
Consider `COc1cc(C(=O)OCC(=O)Nc2ccc(SC(F)F)cc2)cc(OC)c1OC`, for which the cell number change is -19.5%. Also, the AC50 under setting [1] was 6.51 µM [falling, full curve, poor fit].
As for `COc1ccc2c(c1)[n+](=O)c(C(C)=O)c(C)n2[O-]`, the cell number change is -3.57%. The AC50 under setting [1] was 0.651 µM [rising, single point].
For `COc1cc(NC(=O)c2noc(C)c2[N+](=O)[O-])c(OC)cc1Cl`, the cell number change is -0.38%. Also, under setting [1], the AC50 was 0.411 µM [rising, partial curve, poor fit].
In the case of `CCOC(=O)c1ccc(NC(=O)c2nc[nH]c2C(=O)NCCCCNC(=O)c2[nH]cnc2C(=O)Nc2ccc(C(=O)OCC)cc2)cc1`, the cell number change came to 20.4%. For the same compound, the AC50 under setting [1] was 0.731 µM [falling, single point].
On to `Cc1ccc2nc(NC3=NC(CC(=O)O)C(=O)N3)nc(C)c2c1` (configuration not stated), for which the cell number change is 59.2%. Moreover, the AC50 under setting [2] was 20.6 µM [rising, single point].
Regarding `COc1ccc(/C=C2\COc3ccccc3C2=O)c(OC)c1`, the cell number change is -39%. The AC50 under setting [2] was 13 µM [falling, single point]. Besides, the AC50 under setting [1] was 29.1 µM [falling, partial curve, poor fit].
Regarding `CCN(CC)S(=O)(=O)c1ccc(Oc2ccccc2)cc1`, under setting [1], the AC50 is 0.116 µM [falling, full curve, poor fit].
Turning to `CCc1ccc2c(c1)C(c1ccc([N+](=O)[O-])cc1)=NNC(c1ccc(F)cc1)=N2`, the cell number change is -51.8%. Besides, the AC50 under setting [2] is 6.51 µM [falling, full curve]. Further, under setting [1], the AC50 was 23.1 µM [falling, single point].
For the compound `O=C(O)c1cccc(C(=O)O)n1`, the cell number change is -3.45%. Moreover, under setting [1], the AC50 was 1.3 µM [falling, full curve].
Consider `COc1ccc(C(=O)Nc2nc(-c3cccs3)cs2)cc1`, for which the cell number change is -18.9%. The AC50 under setting [1] is 23.1 µM [rising, single point].
Turning to `CCCCN(C(=O)c1cc(CC)c(C)s1)c1c(N)n(CCC)c(=O)[nH]c1=O`, the cell number change worked out at 50%. For the same compound, the AC50 under setting [2] was 29.1 µM [rising, single point]. Moreover, under setting [1], the half-maximal activity concentration (AC50) was 0.103 µM [rising, full curve, poor fit].
Take `Cc1ccc(S(=O)(=O)NCc2ccco2)cc1C(N)=O`: the cell number change is 20.6%.
Consider `CCCCc1ccc(NC(=S)NCC2CCCO2)cc1` (configuration not stated), for which the cell number change was determined as 7.12%. Moreover, under setting [1], the AC50 is 14.6 µM [rising, single point].
Regarding `Cc1cccc(NC(=O)CNC(=O)Cn2cc(C(F)(F)F)cc(Cl)c2=O)c1C`, the cell number change turned out to be 2.01%.
Turning to `CC(C)c1ccc(S(=O)(=O)Nc2ccc(SC(F)F)cc2)cc1`, the cell number change is -48.8%. For the same compound, the AC50 under setting [2] is 11.6 µM [falling, partial curve]. Besides, the AC50 under setting [1] was 29.1 µM [falling, single point].
